Reference: paper doi:10.1101/2020.09.23.309245
These are yes or no findings as the source states them, for the method shown. Some entries that bind do so weakly or less than the wild type. Where a sequence is shown, tags or fusion partners need not be part of it.

By UniProt entry, the sequences of proteins in these tests, tags left out. Residues count along the entry.
UniProt Q9NRD9, 20-1551: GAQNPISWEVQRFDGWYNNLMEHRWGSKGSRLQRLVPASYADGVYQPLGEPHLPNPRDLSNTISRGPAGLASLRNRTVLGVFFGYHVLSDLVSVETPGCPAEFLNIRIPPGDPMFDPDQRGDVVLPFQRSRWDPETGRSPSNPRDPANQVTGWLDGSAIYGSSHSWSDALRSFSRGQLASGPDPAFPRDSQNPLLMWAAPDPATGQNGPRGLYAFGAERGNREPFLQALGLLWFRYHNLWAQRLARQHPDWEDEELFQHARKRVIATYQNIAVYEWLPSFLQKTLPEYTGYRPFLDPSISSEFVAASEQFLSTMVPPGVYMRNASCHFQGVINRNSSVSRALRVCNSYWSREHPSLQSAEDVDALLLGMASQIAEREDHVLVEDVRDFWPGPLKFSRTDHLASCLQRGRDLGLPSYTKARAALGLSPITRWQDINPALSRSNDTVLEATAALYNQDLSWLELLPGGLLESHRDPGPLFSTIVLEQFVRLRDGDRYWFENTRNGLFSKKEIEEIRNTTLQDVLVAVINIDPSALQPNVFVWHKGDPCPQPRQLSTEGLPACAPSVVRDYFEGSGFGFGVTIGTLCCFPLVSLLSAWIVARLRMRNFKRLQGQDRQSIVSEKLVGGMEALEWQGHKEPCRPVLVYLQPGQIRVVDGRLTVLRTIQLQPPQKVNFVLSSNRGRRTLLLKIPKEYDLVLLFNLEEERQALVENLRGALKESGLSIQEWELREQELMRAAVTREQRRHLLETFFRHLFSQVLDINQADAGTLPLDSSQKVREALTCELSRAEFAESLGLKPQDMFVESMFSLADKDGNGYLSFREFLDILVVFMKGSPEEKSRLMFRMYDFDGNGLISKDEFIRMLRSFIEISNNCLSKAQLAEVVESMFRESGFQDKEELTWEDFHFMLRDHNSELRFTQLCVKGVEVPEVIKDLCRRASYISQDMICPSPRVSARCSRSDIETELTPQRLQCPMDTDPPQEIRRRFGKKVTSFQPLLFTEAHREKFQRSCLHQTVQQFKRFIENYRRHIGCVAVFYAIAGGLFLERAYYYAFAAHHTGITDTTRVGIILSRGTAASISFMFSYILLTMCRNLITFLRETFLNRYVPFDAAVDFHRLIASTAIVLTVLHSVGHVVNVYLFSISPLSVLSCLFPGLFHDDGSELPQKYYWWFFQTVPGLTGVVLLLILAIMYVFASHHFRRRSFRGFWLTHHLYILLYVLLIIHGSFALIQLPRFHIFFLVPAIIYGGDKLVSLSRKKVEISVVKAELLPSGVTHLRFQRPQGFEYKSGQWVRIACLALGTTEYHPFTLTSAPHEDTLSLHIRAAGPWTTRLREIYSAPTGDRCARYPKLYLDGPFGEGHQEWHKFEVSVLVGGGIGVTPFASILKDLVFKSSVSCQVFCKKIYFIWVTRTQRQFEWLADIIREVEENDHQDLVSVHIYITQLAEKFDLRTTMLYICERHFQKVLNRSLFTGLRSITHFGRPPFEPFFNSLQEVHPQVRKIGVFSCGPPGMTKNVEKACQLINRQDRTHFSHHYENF

Tests used:
[1] = molecular target: human DUOX1 (hDUOX1), matured protein (20-1551) with N-terminal GFP tag (human) (UniProt Q9NRD9); assay: SEC
[2] = molecular target: human DUOX1 (hDUOX1), matured protein (20-1551) with N-terminal GFP tag (human) (UniProt Q9NRD9); assay: cryo-EM structure
[3] = molecular target: human DUOX1 (hDUOX1), matured protein (20-1551) with N-terminal GFP tag (human) (UniProt Q9NRD9); assay: cryo-EM structure; remark: listed apart in the source

binding [1]	binding [2]	binding [3]	Binder
binds			human DUOXA1 (hDUOXA1) with a C-terminal MBP-mScarlet tag (protein, UniProt Q1HG43 1-330) MATLGHTFPFYAGPKPTFPMDTTLASIIMIFLTALATFIVILPGIRGKTRLFWLLRVVTSLFIGAAILAVNFSSEWSVGQVSTNTSYKAFSSEWISADIGLQVGLGGVNITLTGTPVQQLNETINYNEEFTWRLGENYAEEYAKALEKGLPDPVLYLAEKFTPRSPCGLYRQYRLAGHYTSAMLWVAFLCWLLANVMLSMPVLVYGGYMLLATGIFQLLALLFFSMATSLTSPCPLHLGASVLHTHHGPAFWITLTTGLLCVLLGLAMAVAHRMQPHRLKAFFNQSVDEDPMLEWSPEEGGLLSPRYRSMADSPKSQDIPLSEASSTKAY
binds	binds	binds	human DUOXA1 (hDUOXA1), non-tagged (protein, UniProt Q1HG43 1-330, N-linked glycosylation on N109) MATLGHTFPFYAGPKPTFPMDTTLASIIMIFLTALATFIVILPGIRGKTRLFWLLRVVTSLFIGAAILAVNFSSEWSVGQVSTNTSYKAFSSEWISADIGLQVGLGGVNITLTGTPVQQLNETINYNEEFTWRLGENYAEEYAKALEKGLPDPVLYLAEKFTPRSPCGLYRQYRLAGHYTSAMLWVAFLCWLLANVMLSMPVLVYGGYMLLATGIFQLLALLFFSMATSLTSPCPLHLGASVLHTHHGPAFWITLTTGLLCVLLGLAMAVAHRMQPHRLKAFFNQSVDEDPMLEWSPEEGGLLSPRYRSMADSPKSQDIPLSEASSTKAY
